Measured values as given in PubChem BioAssay AID1259415 (National Center for Advancing Translational Sciences (NCATS), 2018).
The whole screen tested about 410,000 compounds, of which about 18,000 (4.4%) were called active. This list was built around the results that the source calls inconclusive (neither active nor inactive); the mix of calls is not that of the screen. Cut-off read from the data, not from the text of the source: active = activity change below about -60%; inconclusive = no clear call, values can overlap the other calls; inactive = above about -39%.

Test: qHTS Assay for inhibitors of the human cytomegalovirus (HCMV)
Conditions: HFF cells, HCMV-luciferase reporter, 72 h; at 57.5 µM; stronger effect = lower value
Procedure, shortened: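 Screen run at 2 compound doses on HFFs infected with reporter HCMV, MOI 1 PFU/cell. Luciferase activity from cell lysates at 72 h post infection gave inhibition relative to buffer-only and Salinomycin wells.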
% is set by controls: 0 for no effect and ±100 for the full control effect.

| Structure (SMILES) | activity change, negative = inhibition |
| --- | --- |
| CCN1CCN(Cc2ccc(NC(=O)Nc3ccccc3OC)cc2)CC1 | inactive: 33.4% |
| O=C1C(=O)N(CC2COc3ccccc3O2)c2ccccc21 (centres undefined) | active: -62.4% |
| O=C(CSc1nccn1-c1ccc(Cl)cc1)N1CCCc2ccccc21 | inconclusive: -41.1% |
| CCOC(=O)c1sc2nc(CC(C)C)c3c(c2c1N)CCC3 | inconclusive: -41.1% |
| Cc1ccc(-n2ncc(C(=O)N3CCN(c4ccccn4)CC3)c2C2CCN(C(=O)OC(C)(C)C)CC2)cc1C | inconclusive: 0% |
| CN(C(=O)COC(=O)c1cccc(S(=O)(=O)N(C)c2ccccc2)c1)C1CCCCC1 | inactive: -11.9% |
| Cc1nc2ccccc2c(=O)n1-c1ccc(Cl)cc1[N+](=O)[O-] | inconclusive: -48.7% |
| COC(=O)c1cccc([N+](=O)[O-])c1CS(=O)(=O)c1ccc(C)cc1 | inconclusive: -56.2% |
| O=C(Nc1cccc(S(=O)(=O)N2CCOCC2)c1)C1CCCN(C(=O)c2ccc(Cl)cc2)C1 (centres undefined) | inconclusive: -57.7% |
| Cc1ccccc1-c1nc(CN2CCCC2c2ccc(F)cc2)c(C)o1 (centres undefined) | inactive: -23.5% |
| c1c2c(cc3sc(N4CCCCC4)nc13)OCCO2 | active: -64.2% |
| COc1ccc(NC(=O)c2c(N)no[n+]2[O-])cc1 | inconclusive: -42.6% |
| Nc1nc(N)n(-c2ccccc2)c(=Nc2ccccc2)n1 | inactive: 2.96% |
| CC(C)(C)NC(=O)CN(Cc1cccs1)C(=O)CCN1CCc2ccccc21 | inconclusive: -46.3% |
| Cc1cc(C)nc(NNC2=CC(=[N+]3CCCCC3)CC(C)(C)C2)n1 | inconclusive: -44.1% |
| CCOC(=O)c1cc(-c2ccccc2)nn1CC1CC(c2ccc(Cl)cc2)=NO1 (centres undefined) | inactive: 0.75% |
| COn1c(SCc2cccc(Cl)c2)nc2ccccc2c1=O | inconclusive: -42.4% |
| Cc1nc(-c2cc(-c3nc(-c4cc(C(F)(F)F)cc(C(F)(F)F)c4)no3)no2)cs1 | inactive: 64.3% |
| O=C(N/N=C/c1cccnc1)c1ccccc1 | inconclusive: -56.2% |
| Cc1cc(-c2ccccc2C(=O)NC2CCCCC2)on1 | inconclusive: -53.5% |
| COC(=O)c1ccc(N/C(=N/S(=O)(=O)c2ccccc2)c2ccccc2)cc1 | inconclusive: -50.8% |
| O=C1c2ccccc2C(=O)N1OCc1c(F)cccc1Cl | inconclusive: -49.7% |
| O=[N+]([O-])c1cc(S(=O)(=O)Nc2cccc(Cl)c2)ccc1N=Nc1c(O)[nH]c2ccccc12 | active: -78.2% |
| Cc1[nH]c(=O)[nH]c(=O)c1CCSSCCc1c(C)[nH]c(=O)[nH]c1=O | inactive: 17.1% |

Single entries from above.
In activity change, negative = inhibition, COC(=O)c1ccc(N/C(=N/S(=O)(=O)c2ccccc2)c2ccccc2)cc1 has the entry inconclusive: -50.8%
In activity change, negative = inhibition, CCOC(=O)c1sc2nc(CC(C)C)c3c(c2c1N)CCC3 has the entry inconclusive: -41.1%
